The supplement of paper PMC12067093, “Discovery and optimisation of a covalent ligand for TRIM25 and its application to targeted protein ubiquitination” (Chemical Science, 2025)
Some of the results follow.

By UniProt entry, the sequences of proteins in these tests, tags left out. Where a name states a change or a piece, a line headed by the entry shows the natural chain unless it says otherwise.
UniProt P0DPB6, whole entry, looked up: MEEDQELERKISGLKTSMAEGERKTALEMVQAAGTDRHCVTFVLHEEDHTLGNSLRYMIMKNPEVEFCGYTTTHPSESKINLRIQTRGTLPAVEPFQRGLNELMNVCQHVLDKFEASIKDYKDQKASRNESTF
UniProt Q96CD2: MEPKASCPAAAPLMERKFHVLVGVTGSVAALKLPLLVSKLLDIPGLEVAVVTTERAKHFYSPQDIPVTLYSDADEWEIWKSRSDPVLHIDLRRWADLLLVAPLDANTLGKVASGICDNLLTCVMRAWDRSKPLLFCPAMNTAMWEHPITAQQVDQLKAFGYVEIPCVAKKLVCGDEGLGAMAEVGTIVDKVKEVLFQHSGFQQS
UniProt P09884: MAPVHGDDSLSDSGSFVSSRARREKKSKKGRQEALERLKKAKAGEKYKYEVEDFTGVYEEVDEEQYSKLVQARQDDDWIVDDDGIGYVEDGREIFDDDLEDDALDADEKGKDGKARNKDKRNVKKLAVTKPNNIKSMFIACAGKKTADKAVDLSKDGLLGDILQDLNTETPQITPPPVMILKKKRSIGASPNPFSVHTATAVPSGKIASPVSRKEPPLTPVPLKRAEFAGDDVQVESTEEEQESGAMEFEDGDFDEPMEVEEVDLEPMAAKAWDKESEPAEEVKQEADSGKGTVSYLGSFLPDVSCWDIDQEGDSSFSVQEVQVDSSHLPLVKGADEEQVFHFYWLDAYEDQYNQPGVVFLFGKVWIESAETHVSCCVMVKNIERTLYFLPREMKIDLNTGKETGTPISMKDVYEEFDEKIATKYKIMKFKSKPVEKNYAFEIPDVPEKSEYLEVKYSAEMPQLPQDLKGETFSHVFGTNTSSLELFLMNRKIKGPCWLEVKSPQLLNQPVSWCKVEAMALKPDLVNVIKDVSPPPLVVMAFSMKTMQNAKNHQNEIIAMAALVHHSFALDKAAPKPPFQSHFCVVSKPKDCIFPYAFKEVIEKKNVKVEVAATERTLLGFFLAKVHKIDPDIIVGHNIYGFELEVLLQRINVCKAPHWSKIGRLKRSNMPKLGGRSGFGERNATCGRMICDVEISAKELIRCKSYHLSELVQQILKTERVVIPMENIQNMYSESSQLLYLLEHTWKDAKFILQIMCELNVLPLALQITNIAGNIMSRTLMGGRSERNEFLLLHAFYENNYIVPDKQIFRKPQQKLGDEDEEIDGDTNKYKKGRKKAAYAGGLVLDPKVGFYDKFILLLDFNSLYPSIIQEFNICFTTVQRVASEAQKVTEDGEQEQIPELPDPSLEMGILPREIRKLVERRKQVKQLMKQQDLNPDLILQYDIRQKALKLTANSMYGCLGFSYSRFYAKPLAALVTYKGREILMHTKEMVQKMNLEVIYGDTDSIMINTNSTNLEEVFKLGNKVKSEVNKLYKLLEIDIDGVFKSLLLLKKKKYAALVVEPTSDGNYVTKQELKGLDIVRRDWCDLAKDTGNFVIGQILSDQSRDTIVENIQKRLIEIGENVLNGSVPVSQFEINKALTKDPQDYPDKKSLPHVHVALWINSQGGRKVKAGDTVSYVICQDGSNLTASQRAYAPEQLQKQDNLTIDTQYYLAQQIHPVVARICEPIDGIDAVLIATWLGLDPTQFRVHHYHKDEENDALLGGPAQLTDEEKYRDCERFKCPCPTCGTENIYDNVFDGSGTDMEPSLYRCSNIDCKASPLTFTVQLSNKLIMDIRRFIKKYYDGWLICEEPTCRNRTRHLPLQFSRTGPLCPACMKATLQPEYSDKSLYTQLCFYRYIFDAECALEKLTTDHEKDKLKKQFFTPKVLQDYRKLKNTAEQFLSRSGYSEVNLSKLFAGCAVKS
UniProt Q9H2U2: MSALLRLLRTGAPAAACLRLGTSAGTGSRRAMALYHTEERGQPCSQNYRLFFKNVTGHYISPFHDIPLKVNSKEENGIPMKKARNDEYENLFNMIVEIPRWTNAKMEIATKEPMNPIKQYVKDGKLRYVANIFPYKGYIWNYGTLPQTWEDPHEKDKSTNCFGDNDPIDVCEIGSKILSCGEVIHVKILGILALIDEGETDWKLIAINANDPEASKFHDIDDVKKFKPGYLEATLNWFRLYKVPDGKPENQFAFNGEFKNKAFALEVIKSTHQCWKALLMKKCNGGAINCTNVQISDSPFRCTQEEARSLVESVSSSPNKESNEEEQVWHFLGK
UniProt P16435: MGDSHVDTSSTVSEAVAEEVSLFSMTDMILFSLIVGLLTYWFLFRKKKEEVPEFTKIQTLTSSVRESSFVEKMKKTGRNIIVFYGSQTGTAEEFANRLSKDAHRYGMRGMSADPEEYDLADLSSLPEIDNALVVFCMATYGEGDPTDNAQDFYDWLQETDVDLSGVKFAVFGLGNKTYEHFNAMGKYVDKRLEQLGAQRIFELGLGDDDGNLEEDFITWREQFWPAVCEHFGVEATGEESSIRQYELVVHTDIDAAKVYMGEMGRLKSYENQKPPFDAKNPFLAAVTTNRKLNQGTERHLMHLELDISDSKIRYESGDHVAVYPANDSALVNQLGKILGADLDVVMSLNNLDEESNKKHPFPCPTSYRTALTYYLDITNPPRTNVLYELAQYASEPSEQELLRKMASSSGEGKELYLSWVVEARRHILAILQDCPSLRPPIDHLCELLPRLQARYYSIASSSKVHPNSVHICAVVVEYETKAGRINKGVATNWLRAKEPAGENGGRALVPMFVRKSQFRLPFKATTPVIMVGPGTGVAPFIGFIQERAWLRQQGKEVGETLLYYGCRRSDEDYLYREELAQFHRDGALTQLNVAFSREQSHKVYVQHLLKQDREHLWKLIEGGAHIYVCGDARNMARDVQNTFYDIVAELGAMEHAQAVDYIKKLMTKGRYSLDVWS
UniProt Q15181: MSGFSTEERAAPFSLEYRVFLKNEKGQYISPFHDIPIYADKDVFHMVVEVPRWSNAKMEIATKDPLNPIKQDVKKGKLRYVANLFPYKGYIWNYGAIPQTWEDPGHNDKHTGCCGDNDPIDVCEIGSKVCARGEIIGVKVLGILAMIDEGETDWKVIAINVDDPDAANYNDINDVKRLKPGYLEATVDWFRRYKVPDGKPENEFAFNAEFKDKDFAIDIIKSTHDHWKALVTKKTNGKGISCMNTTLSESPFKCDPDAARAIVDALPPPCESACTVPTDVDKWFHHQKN
UniProt Q06203, whole entry, looked up: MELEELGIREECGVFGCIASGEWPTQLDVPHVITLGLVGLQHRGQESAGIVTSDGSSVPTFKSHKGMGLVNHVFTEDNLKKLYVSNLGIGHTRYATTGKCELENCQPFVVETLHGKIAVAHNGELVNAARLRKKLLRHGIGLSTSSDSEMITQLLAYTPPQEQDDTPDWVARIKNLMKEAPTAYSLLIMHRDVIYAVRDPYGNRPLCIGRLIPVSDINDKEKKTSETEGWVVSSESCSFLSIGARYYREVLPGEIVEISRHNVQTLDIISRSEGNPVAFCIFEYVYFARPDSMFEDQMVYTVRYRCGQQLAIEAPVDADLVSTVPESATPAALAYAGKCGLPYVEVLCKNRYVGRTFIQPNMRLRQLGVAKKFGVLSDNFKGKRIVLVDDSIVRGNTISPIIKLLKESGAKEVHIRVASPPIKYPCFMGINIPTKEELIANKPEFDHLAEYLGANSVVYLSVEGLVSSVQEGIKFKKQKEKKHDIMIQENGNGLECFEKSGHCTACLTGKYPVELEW
UniProt O15160, whole entry, looked up: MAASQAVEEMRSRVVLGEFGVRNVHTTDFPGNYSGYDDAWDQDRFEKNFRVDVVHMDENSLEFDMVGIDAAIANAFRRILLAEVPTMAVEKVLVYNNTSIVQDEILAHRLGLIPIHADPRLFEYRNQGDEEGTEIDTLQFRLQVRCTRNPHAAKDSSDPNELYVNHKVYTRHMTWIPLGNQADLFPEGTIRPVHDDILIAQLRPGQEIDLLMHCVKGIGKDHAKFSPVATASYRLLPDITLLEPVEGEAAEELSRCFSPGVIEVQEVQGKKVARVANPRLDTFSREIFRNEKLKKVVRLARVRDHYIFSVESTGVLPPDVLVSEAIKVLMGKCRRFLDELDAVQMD
UniProt P62937, whole entry, looked up: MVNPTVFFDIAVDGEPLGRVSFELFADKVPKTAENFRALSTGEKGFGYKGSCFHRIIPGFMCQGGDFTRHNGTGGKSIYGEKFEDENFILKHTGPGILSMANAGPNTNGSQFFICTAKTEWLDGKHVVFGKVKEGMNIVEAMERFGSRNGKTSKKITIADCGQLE
UniProt O95602, whole entry, looked up: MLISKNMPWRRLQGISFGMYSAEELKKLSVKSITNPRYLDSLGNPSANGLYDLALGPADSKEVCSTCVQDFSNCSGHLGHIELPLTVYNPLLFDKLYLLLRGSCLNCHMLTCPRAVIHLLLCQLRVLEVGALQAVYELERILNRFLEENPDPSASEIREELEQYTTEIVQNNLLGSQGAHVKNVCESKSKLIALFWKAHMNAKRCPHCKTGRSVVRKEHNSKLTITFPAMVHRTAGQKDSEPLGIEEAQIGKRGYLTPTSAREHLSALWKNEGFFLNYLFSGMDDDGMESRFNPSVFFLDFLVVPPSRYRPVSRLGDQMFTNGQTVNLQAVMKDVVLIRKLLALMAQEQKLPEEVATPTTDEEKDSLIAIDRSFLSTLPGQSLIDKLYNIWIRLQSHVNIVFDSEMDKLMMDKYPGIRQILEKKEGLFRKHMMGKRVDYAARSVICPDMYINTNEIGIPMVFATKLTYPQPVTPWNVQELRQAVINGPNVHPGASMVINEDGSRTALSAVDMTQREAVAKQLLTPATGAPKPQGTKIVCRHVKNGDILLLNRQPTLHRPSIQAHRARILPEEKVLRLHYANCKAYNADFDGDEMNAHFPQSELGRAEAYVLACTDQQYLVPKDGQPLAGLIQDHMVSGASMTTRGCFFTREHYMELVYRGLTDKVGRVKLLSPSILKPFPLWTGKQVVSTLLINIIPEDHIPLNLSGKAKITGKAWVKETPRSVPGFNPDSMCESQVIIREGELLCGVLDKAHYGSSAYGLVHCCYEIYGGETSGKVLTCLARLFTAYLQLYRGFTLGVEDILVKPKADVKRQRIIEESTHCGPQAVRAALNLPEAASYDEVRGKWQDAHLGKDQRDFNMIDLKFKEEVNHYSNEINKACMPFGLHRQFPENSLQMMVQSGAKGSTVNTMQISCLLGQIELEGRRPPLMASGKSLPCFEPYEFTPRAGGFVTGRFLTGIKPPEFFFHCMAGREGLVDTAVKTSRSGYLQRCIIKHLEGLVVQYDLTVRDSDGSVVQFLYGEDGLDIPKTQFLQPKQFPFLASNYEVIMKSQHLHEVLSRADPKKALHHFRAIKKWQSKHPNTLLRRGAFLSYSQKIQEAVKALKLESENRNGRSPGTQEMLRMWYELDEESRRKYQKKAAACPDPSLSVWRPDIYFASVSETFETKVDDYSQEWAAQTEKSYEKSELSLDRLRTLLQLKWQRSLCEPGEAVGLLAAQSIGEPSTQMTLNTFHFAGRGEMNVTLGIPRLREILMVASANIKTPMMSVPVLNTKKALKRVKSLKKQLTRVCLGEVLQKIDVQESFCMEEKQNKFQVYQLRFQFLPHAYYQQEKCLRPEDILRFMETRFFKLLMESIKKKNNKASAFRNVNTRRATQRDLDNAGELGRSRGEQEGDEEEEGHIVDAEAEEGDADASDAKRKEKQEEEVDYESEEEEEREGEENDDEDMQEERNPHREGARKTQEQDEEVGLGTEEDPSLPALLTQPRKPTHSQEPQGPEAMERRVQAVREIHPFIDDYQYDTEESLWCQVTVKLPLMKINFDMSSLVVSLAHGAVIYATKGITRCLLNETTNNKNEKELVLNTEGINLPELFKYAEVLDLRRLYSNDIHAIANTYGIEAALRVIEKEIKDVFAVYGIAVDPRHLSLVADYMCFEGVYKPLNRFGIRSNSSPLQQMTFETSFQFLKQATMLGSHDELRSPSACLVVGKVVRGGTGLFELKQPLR
UniProt Q9NUX5: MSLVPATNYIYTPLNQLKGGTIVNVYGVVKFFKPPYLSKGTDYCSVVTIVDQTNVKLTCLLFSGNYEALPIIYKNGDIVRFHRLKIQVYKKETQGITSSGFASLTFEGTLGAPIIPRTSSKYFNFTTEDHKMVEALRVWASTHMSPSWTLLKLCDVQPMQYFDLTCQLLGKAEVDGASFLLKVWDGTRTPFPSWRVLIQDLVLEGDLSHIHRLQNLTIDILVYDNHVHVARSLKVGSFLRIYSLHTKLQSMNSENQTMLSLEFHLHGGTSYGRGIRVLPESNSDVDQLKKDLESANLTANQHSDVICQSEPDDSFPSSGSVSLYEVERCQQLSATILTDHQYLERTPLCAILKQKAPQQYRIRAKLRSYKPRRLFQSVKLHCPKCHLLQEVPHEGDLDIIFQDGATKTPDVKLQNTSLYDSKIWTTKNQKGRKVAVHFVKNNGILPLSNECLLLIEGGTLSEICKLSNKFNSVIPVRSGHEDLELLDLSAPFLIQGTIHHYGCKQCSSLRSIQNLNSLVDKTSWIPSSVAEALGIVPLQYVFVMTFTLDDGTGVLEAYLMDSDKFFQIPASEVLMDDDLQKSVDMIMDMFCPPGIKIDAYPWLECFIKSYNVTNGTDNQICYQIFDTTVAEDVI

Compound: CC1Cc2ccccc2N1C(=O)C1CCCN(C1)C(=O)CCl (mixture of isomers) [TRIM25 ligand 11 (diastereomer mixture)]
Test: probe-labelled cysteine peptide fold change vs DMSO (competition) (log2 fold change); higher = less target engagement (more negative = stronger competition)
Conditions: THP-1, incubation time: 4 h
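Further: competitive chemoproteomic profiling in live THP-1 cells with an iodoacetamide desthiobiotin (IA-DTB) probe, comparing probe-labelled peptide intensities in compound-treated cells against DMSO-treated controls.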

| Target | probe-labelled cysteine peptide fold change (10 µM) | probe-labelled cysteine peptide fold change (50 µM) |
| --- | --- | --- |
| POLR3B_Q9NW08_145_SSNCVLTGK (UniProt Q9NW08) | -0.0376 | -0.0284 |
| POLR1E_Q9GZS1_276_CIWFLDTLIK (UniProt Q9GZS1) | -0.0893 | -0.0644 |
| POLR1D_P0DPB6_68_NPEVEFCGYTTTHPSESK (UniProt P0DPB6) | -0.0947 | -0.2 |
| POLR2D_O15514_99+104_FELACLANLCPETAEESK (UniProt O15514) | 0.0524 | -0.241 |
| POLR3E_Q9NVU0_553_AAGTDSFNGHPPQGCASTPVAR (UniProt Q9NVU0) | -0.0176 | -0.422 |
| PPCDC_Q96CD2_7_ASCPAAAPLMER (UniProt Q96CD2) | -0.208 | -0.188 |
| POLA1_P09884_1393_SLYTQLCFYR (UniProt P09884) | -0.132 | -0.0914 |
| PPID_Q08752_71_GCPFHR (UniProt Q08752) | -0.0219 | -0.209 |
| PPA2_Q9H2U2_161_DKSTNCFGDNDPIDVCEIGSK (UniProt Q9H2U2) | -0.0369 | -0.163 |
| POLA2_Q14181_556_DVLGCVCVNPGR (UniProt Q14181) | -0.0778 | 0.171 |
| POLR2B_P30876_224_SCLENSSRPTSTIWVSMLAR (UniProt P30876) | -0.089 | -0.0468 |
| POR_P16435_434_HILAILQDCPSLRPPIDHLCELLPR (UniProt P16435) | -0.137 | -0.181 |
| PPA1_Q15181_123_HTGCCGDNDPIDVCEIGSK (UniProt Q15181) | -0.0217 | -0.178 |
| PPIG_Q13427_174_ILSCGELIPK (UniProt Q13427) | -0.16 | -0.345 |
| PPCDC_Q96CD2_166_AFGYVEIPCVAK (UniProt Q96CD2) | -0.0451 | -0.0638 |
| POP1_Q99575_283_ALSGMCNIDTGLTFAAVHCLSGKR (UniProt Q99575) | -0.263 | 0.0997 |
| POGZ_Q7Z3K3_621+624_HLLCPYCLK (UniProt Q7Z3K3) | -0.0243 | -0.0165 |
| POR_P16435_445_HILAILQDCPSLRPPIDHLCELLPR (UniProt P16435) | 0.0279 | -0.0712 |
| POGZ_Q7Z3K3_781+782_YSTCCSR (UniProt Q7Z3K3) | -0.037 | 0.201 |
| POLD1_P28340_338_KGIFPEPERDPVIQICSLGLR (UniProt P28340) | -0.172 | -0.0675 |
| POLR2I_P36954_119_LYYVCTAPHCGHR (UniProt P36954) | 0.355 | 0.301 |
| POLD1_P28340_319_VLSFDIECAGR (UniProt P28340) | -0.0256 | 0.0359 |
| POLRMT_O00411_178_QMAGCLEDCTR (UniProt O00411) | -0.187 | -0.336 |
| PPAT_Q06203_503_SGHCTACLTGK (UniProt Q06203) | 0.157 | -0.211 |
| POLD1_P28340_319_VLSFDIECAGRK (UniProt P28340) | -0.212 | -0.159 |
| POLR2A_P24928_602_QIFSLIIPGHINCIR (UniProt P24928) | -0.145 | 0.025 |
| POLR1C_O15160_256_CFSPGVIEVQEVQGK (UniProt O15160) | -0.0104 | -0.00981 |

| Target | probe-labelled cysteine peptide fold change (10 µM) | probe-labelled cysteine peptide fold change (50 µM) |
| --- | --- | --- |
| POLD1_P28340_338_GIFPEPERDPVIQICSLGLR (UniProt P28340) | 0.00962 | 0.183 |
| POLR1E_Q9GZS1_14_WQYCGAPDGSQR (UniProt Q9GZS1) | -0.193 | -0.244 |
| POLA1_P09884_686_NATCGR (UniProt P09884) | -0.0669 | 0.143 |
| POMP_Q9Y244_37_KGFSCVK (UniProt Q9Y244) | -0.314 | -0.466 |
| POLDIP3_Q9BY77_301_VTEEDIVELFCVCGALKR (UniProt Q9BY77) | -0.169 | -0.0607 |
| POLR2K_P53803_22_QQPMIYICGECHTENEIK (UniProt P53803) | -0.198 | -0.208 |
| PNP_P00491_78_ACVMMQGR (UniProt P00491) | 0.104 | 0.188 |
| PPFIA1_Q13136_189_CSLLEEELGATHK (UniProt Q13136) | 0.0753 | 0.199 |
| PPAT_Q06203_496_HDIMIQENGNGLECFEK (UniProt Q06203) | 0.0844 | 0.126 |
| POLD2_P49005_438_IIRGPEDQTVLLVTVPDFSATQTACLVNLR (UniProt P49005) | -0.105 | -0.431 |
| PPIA_P62937_52_GFGYKGSCFHR (UniProt P62937) | -0.00283 | 0.0616 |
| POLR2B_P30876_572_IFVNGCWVGIHK (UniProt P30876) | 0.18 | 0.297 |
| POGK_Q9P215_369_AHDYEVAQMGNADETPICLEVPSR (UniProt Q9P215) | -0.0537 | -0.255 |
| POLD2_P49005_91_CCVVGTLFK (UniProt P49005) | -0.0797 | -0.113 |
| POM121_Q96HA1_217_DCGTLPNR (UniProt Q96HA1) | -0.0522 | -0.0226 |
| POR_P16435_434_RHILAILQDCPSLRPPIDHLCELLPR (UniProt P16435) | 0.0292 | 0.109 |
| POLDIP3_Q9BY77_301+303_VTEEDIVELFCVCGALK (UniProt Q9BY77) | 0.0734 | 0.0944 |
| PPIF_P30405_203_IVITDCGQLS (UniProt P30405) | -0.0308 | 0.0592 |
| POLR1A_O95602_914_GSTVNTMQISCLLGQIELEGR (UniProt O95602) | 0.149 | 0.145 |
| POLR2A_P24928_641_VVVENGELIMGILCK (UniProt P24928) | 0.00875 | -0.126 |
| POP1_Q99575_804_ITDQEASENHVAATGSHLCVLR (UniProt Q99575) | -0.094 | -0.219 |
| POLR3E_Q9NVU0_676_LTQECGEDLSK (UniProt Q9NVU0) | -0.00852 | 0.0997 |
| POLD3_Q15054_137_FSAIQCAAAVPR (UniProt Q15054) | 0.0137 | 0.0506 |
| PPIG_Q13427_33_VVFELFSDVCPK (UniProt Q13427) | 0.0131 | -0.047 |
| POLD1_P28340_1026_TVLSHQGAVCEFCQPR (UniProt P28340) | -0.0534 | 0.265 |
| PPA2_Q9H2U2_180_ILSCGEVIHVK (UniProt Q9H2U2) | 0.043 | -0.0983 |
| PPFIBP1_Q86W92_140_DLEFCLEEHREK (UniProt Q86W92) | 0.00184 | -0.0927 |

Nothing new here: an excerpt of the list.

| Target | probe-labelled cysteine peptide fold change (10 µM) | probe-labelled cysteine peptide fold change (50 µM) |
| --- | --- | --- |
| PPIA_P62937_52_GFGYKGSCFHR (UniProt P62937) | -0.00283 | 0.0616 |
| POLR2B_P30876_572_IFVNGCWVGIHK (UniProt P30876) | 0.18 | 0.297 |
| POGK_Q9P215_369_AHDYEVAQMGNADETPICLEVPSR (UniProt Q9P215) | -0.0537 | -0.255 |

(cont.)

| Target | probe-labelled cysteine peptide fold change (10 µM) | probe-labelled cysteine peptide fold change (50 µM) |
| --- | --- | --- |
| POT1_Q9NUX5_605_IDAYPWLECFIK (UniProt Q9NUX5) | 0.2 | 0.13 |
| PPIG_Q13427_310_ECNPPNSQPASYQR (UniProt Q13427) | 0.00252 | -0.146 |
| POGZ_Q7Z3K3_1230_GMLVMDCHR (UniProt Q7Z3K3) | -0.112 | -0.1 |
| PPAT_Q06203_503+506_SGHCTACLTGK (UniProt Q06203) | 0.214 | 0.0203 |
| POLR1B_Q9H9Y6_214_GPGYTQYGVSMHCVR (UniProt Q9H9Y6) | 0.209 | 0.12 |
| POP1_Q99575_745_SEVPCAPMPK (UniProt Q99575) | -0.168 | -0.363 |
| POGLUT1_Q8NBL1_357_NHLQMDDITCYWENLLSEYSK (UniProt Q8NBL1) | -0.0495 | -0.12 |
| POLR1C_O15160_256_CFSPGVIEVQEVQGKK (UniProt O15160) | -0.429 | -0.154 |
| POLD2_P49005_83_KLCELQPEEK (UniProt P49005) | -0.095 | -0.0982 |
| POT1_Q9NUX5_503_SGHEDLELLDLSAPFLIQGTIHHYGCK (UniProt Q9NUX5) | 0.0674 | 0.231 |
| PPA1_Q15181_113+114_HTGCCGDNDPIDVCEIGSK (UniProt Q15181) | 0.122 | -0.072 |
| POLR2A_P24928_1245_INAGFGDDLNCIFNDDNAEK (UniProt P24928) | -0.0191 | 0.0423 |
| POTEJ_P0CG39_880_LCYVALDFEQEMAMVASSSSLEK (UniProt P0CG39) | 0.0549 | 0.37 |
| POMGNT1_Q8WZA1_490_ECIIPDVSR (UniProt Q8WZA1) | 0.0512 | 0.187 |
| POLR1D_P0DPB6_39_HCVTFVLHEEDHTLGNSLR (UniProt P0DPB6) | -0.0236 | 0.167 |
| POR_P16435_629_LIEGGAHIYVCGDAR (UniProt P16435) | 0.0803 | -0.0277 |
| POGZ_Q7Z3K3_624_HLLCPYCLK (UniProt Q7Z3K3) | -0.277 | -0.0938 |
| POLDIP3_Q9BY77_346_CNLHMNGNVITSDQPILLR (UniProt Q9BY77) | 0.0111 | -0.121 |
| POFUT1_Q9H488_283_STAAPLTMTMCLPDLK (UniProt Q9H488) | -0.116 | 0.0833 |
| POLR1A_O95602_1332_CLRPEDILR (UniProt O95602) | -0.117 | 0.148 |
| POP1_Q99575_959_VTLHCSR (UniProt Q99575) | 0.232 | 0.0265 |
| POP1_Q99575_270+283_ALSGMCNIDTGLTFAAVHCLSGK (UniProt Q99575) | -0.0348 | 0.0349 |
| POGZ_Q7Z3K3_547_QFSTPFQLQCHLENVHSPYESTTK (UniProt Q7Z3K3) | 0.157 | -0.00261 |
| POP1_Q99575_819_QLSAWCGPSSEDSR (UniProt Q99575) | -0.0379 | -0.107 |
| POP1_Q99575_893_EDFLQLHEDWHYCGPQESK (UniProt Q99575) | 0.125 | 0.0169 |
| POLR3E_Q9NVU0_616_MLQDTVLAAGCK (UniProt Q9NVU0) | 0.0733 | -0.0994 |
